From patent publication US8470891B2, “Biodegradable block polymers for drug delivery, and methods related thereto” (International Business Machines Corporation, priority 2009, dated 2013) come the findings set out here.

The assay deals with HepG2 cells. Nature of the assay: Cytotoxicity study using HepG2 cells. The assay is classed as cell-based. Conditions: free DOX.

Values after ≈ are worked out from the molar mass of the structure shown.

In turn, `COc1cccc2c1C(=O)c1c(O)c3c(c(O)c1C2=O)C[C@@](O)(C(=O)CO)C[C@@H]3O[C@H]1C[C@H](N)[C@H](O)[C@H](C)O1` [DOX, doxorubicin] gave an IC50 value of 1.14 mg/L (≈ 2.1 µM).
